Measured values taken from publication doi:10.1101/330084.
Results are given in words; binding and its absence hold for the method and conditions named. For part of these data: Binding seen in cells or lysates may run through a third protein. Some results given as binding are weak or reduced against the parent protein; the word gives no strength.

How the values were obtained:
[1] = target: transferrin receptor (mouse (endogenous in mouse heart)) (UniProt Q62351); experiment: co-IP
[2] = target: transferrin receptor (mouse (endogenous in mouse heart)) (UniProt Q62351); experiment: native gel or EMSA
[3] = target: transferrin receptor (mouse (endogenous in mouse heart)) (UniProt Q62351); experiment: co-IP; remark: listed apart in the source

Measured: binding

B1: mitoNEET (protein, UniProt Q91WS0 1-108)
chain: MGLSSNSAVRVEWIAAVTFAAGTAALGYLAYKKFYAKENRTKAMVNLQIQKDNPKVVHAFDMEDLGDKAVYCRCWRSKKFPFCDGAHIKHNEETGDNVGPLIIKKKET
binds: [1] | [2] | [3]
